Laboratory results published in the supplement of paper PMC8728848.
The list shows a part of the results.

How the values were obtained:
Assay in all cases: glycan array binding signal (z-score within array); higher = stronger binding
Details in all cases: glycan notation: IUPAC condensed, linker removed
[1] = molecular target: GlcNAc(b1-3)GalNAc
In short: (§1)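 Columns mapping to the same glycan were averaged after glycan names were converted to IUPAC-condensed notation. The data come from 3228 arrays in the Consortium for Functional Glycomics database, limited to those with an available protein sequence. Binding is reported as a within-array Z-score averaged across arrays of one protein sequence and across linkers.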

[2] = molecular target: GlcNAc(b1-3)Man
In short: as §1

[3] = molecular target: GlcNAc(b1-3)[GlcNAc(b1-4)][GlcNAc(b1-6)]GlcNAc
In short: as §1

[4] = molecular target: GlcNAc(b1-3)[GlcNAc(b1-6)]Gal(b1-4)GlcNAc
In short: as §1

[5] = molecular target: GlcNAc(b1-3)[GlcNAc(b1-6)]GalNAc
In short: as §1

[6] = molecular target: GlcNAc(b1-4)Gal(b1-4)GlcNAc
In short: as §1

[7] = molecular target: GlcNAc(b1-4)GlcNAc
In short: as §1

[8] = molecular target: GlcNAc(b1-4)GlcNAc(b1-4)GlcNAc
In short: as §1

[9] = molecular target: GlcNAc(b1-4)GlcNAc(b1-4)GlcNAc(b1-4)GlcNAc(b1-4)GlcNAc
In short: as §1

[10] = molecular target: GlcNAc(b1-4)GlcNAc(b1-4)GlcNAc(b1-4)GlcNAc(b1-4)GlcNAc(b1-4)GlcNAc
In short: as §1

[11] = molecular target: GlcNAc(b1-4)[GlcNAc(b1-6)]GalNAc
In short: as §1

[12] = molecular target: GlcNAc(b1-6)Gal(b1-4)GlcNAc
In short: as §1

[13] = molecular target: GlcNAc(b1-6)GalNAc
In short: as §1

[14] = molecular target: GlcNAc6S(b1-3)Gal(b1-4)GlcNAc
In short: as §1

[15] = molecular target: Kdn(a2-3)Gal(b1-3)GalNAc
In short: as §1

[16] = molecular target: Kdn(a2-3)Gal(b1-3)GlcNAc
In short: as §1

[17] = molecular target: Kdn(a2-3)Gal(b1-4)Glc
In short: as §1

[18] = molecular target: Kdn(a2-3)Gal(b1-4)GlcNAc
In short: as §1

[19] = molecular target: Kdn(a2-3)Gal(b1-4)[Fuc(a1-3)]GlcNAc
In short: as §1

[20] = molecular target: Kdn(a2-6)Gal(b1-4)GlcNAc
In short: as §1

[21] = molecular target: Man(a1-2)Man(a1-2)Man(a1-3)Man
In short: as §1

[22] = molecular target: Man(a1-2)Man(a1-2)Man(a1-6)[Man(a1-3)]Man
In short: as §1

[23] = molecular target: Man(a1-2)Man(a1-3)Man
In short: as §1

[24] = molecular target: Man(a1-2)Man(a1-3)[Man(a1-2)Man(a1-6)]Man
In short: as §1

[25] = molecular target: Man(a1-2)Man(a1-3)[Man(a1-2)Man(a1-6)]Man(a1-6)[Man(a1-2)Man(a1-2)Man(a1-3)]Man
In short: as §1

[26] = molecular target: Man(a1-2)Man(a1-3)[Man(a1-2)Man(a1-6)]Man(a1-6)[Man(a1-2)Man(a1-2)Man(a1-3)]Man(b1-4)GlcNAc(b1-4)GlcNAc
In short: as §1

[27] = molecular target: Man(a1-2)Man(a1-3)[Man(a1-6)]Man(a1-6)[Man(a1-2)Man(a1-3)]Man(b1-4)GlcNAc(b1-4)GlcNAc
In short: as §1

[28] = molecular target: Man(a1-2)Man(a1-6)[Man(a1-3)]Man(a1-6)[Man(a1-2)Man(a1-2)Man(a1-3)]Man
In short: as §1

[29] = molecular target: Man(a1-2)Man(a1-6)[Man(a1-3)]Man(a1-6)[Man(a1-2)Man(a1-2)Man(a1-3)]Man(b1-4)GlcNAc(b1-4)GlcNAc
In short: as §1

[30] = molecular target: Man(a1-3)[Man(a1-6)]Man
In short: as §1

[31] = molecular target: Man(a1-3)[Man(a1-6)]Man(a1-6)[Man(a1-2)Man(a1-3)]Man(b1-4)GlcNAc(b1-4)GlcNAc
In short: as §1

[32] = molecular target: Man(a1-3)[Man(a1-6)]Man(a1-6)[Man(a1-3)]Man
In short: as §1

[33] = molecular target: Man(a1-3)[Man(a1-6)]Man(a1-6)[Man(a1-3)]Man(b1-4)GlcNAc(b1-4)GlcNAc
In short: as §1

[34] = molecular target: Man(a1-3)[Man(a1-6)]Man(b1-4)GlcNAc(b1-4)GlcNAc
In short: as §1

[35] = molecular target: Man(a1-3)[Man(a1-6)]Man(b1-4)GlcNAc(b1-4)[Fuc(a1-6)]GlcNAc
In short: as §1

[36] = molecular target: Man(a1-6)Man
In short: as §1

[37] = molecular target: Man(b1-4)GlcNAc
In short: as §1

[38] = molecular target: MurNAc(b1-4)GlcNAc
In short: as §1

B1: Epa21 (Candida glabrata) (protein)
chain: MGSSHHHHHHSSGLVPRGSHMASTPNIESHPQGCSPVDTSGIKPGLKMDLYRFPITPPGTGCWSWDWLTVTPDFPRSGYWKWPKIAEVDGVVGPLHLDSGHPTCDPLTSVLPHGFNYLQSITTTNFTMVLHGYFVPKQSGKYTFEFKADDALLLNLGAGNAFSCCDYNNSQYNQGEYLAYAIWSKNNQTATLYLEKGIYYPIRVFYHNRCCGAYMDVVYYFNDSPIPNRDFSGLLFSIPDSDSCDANI
In the case of B1, the “glycan array binding signal (z-score)” value [1] is reported as -0.605, the “glycan array binding signal (z-score)” value [2] is reported as 0.016 and the “glycan array binding signal (z-score)” value [3] is reported as -0.443. The “glycan array binding signal (z-score)” value [4] was -0.392, the “glycan array binding signal (z-score)” value [5] was -0.434 and the “glycan array binding signal (z-score)” value [6] was -0.138. For the same binder, the “glycan array binding signal (z-score)” value [7] was 0.009, the “glycan array binding signal (z-score)” value [8] was -0.39 and the “glycan array binding signal (z-score)” value [9] was 0.425. The “glycan array binding signal (z-score)” value [10] was 0.112, the “glycan array binding signal (z-score)” value [11] was -0.763 and the “glycan array binding signal (z-score)” value [12] was 0.013. For the same binder, the “glycan array binding signal (z-score)” value [13] was 0.107, the “glycan array binding signal (z-score)” value [14] was 0.257 and the “glycan array binding signal (z-score)” value [15] was 1.54. For the same binder, the “glycan array binding signal (z-score)” value [16] was -0.379, the “glycan array binding signal (z-score)” value [17] was 0.419 and the “glycan array binding signal (z-score)” value [18] was -0.13. For the same binder, the “glycan array binding signal (z-score)” value [19] was 0.588, the “glycan array binding signal (z-score)” value [20] was 0.592 and the “glycan array binding signal (z-score)” value [21] was -0.825. The “glycan array binding signal (z-score)” value [22] was -0.531, the “glycan array binding signal (z-score)” value [23] was -1.02 and the “glycan array binding signal (z-score)” value [24] was -0.812. The “glycan array binding signal (z-score)” value [25] was -0.949, the “glycan array binding signal (z-score)” value [26] was -0.033 and the “glycan array binding signal (z-score)” value [27] was -0.648. For the same binder, the “glycan array binding signal (z-score)” value [28] was -0.188, the “glycan array binding signal (z-score)” value [29] was -0.027 and the “glycan array binding signal (z-score)” value [30] was 0.047. The “glycan array binding signal (z-score)” value [31] was 0.499, the “glycan array binding signal (z-score)” value [32] was -0.026 and the “glycan array binding signal (z-score)” value [33] was 0.393. The “glycan array binding signal (z-score)” value [34] was -0.467, the “glycan array binding signal (z-score)” value [35] was 1.28 and the “glycan array binding signal (z-score)” value [36] was 0.342. For the same binder, the “glycan array binding signal (z-score)” value [37] was 0.389 and the “glycan array binding signal (z-score)” value [38] was 0.152.
